{"source": "PubChem BioAssay AID662", "about": "(National Center for Advancing Translational Sciences (NCATS), 2007)", "note": "The other results are listed elsewhere or left out. These are further read-outs of the screen, such as a control signal, another cell line or another target. No call is given for them. Most of these compounds were active or inconclusive in the main read-out, so they are no random draw. Potencies come from curve fits of mixed quality, noted in brackets.", "data": [{"experiment": "Cell signaling CRE-BLA (Fsk stim)", "details": "CHO CRE-bla reporter (cAMP response element driving beta-lactamase), forskolin EC10, beta-lactamase ratio; measured here: 460 nm blue channel", "summary_of_the_method": "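CRE-bla CHO reporter cells treated with compound titration plus EC10 NKH 477 (water-soluble forskolin), incubated 3 h at 37 °C; CCF4 loading 2 h at room temperature, 460/530 nm emission ratio read, AC50 values derived for positive or negative modulators.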", "values": [{"smiles": "O=C(CC(c1ccccc1)c1cc(Br)ccc1O)NCc1ccco1", "note": "(configuration not stated)", "AC50": "10 µM [falling, partial curve]"}, {"smiles": "CN(C)c1ncc2nc(CCc3ccccc3)c(=O)n(CCC#N)c2n1", "AC50": "10 µM [rising, partial curve]"}, {"smiles": "Cn1cc(-c2nc3cnc(Oc4cccc(Cl)c4)nc3n(C3CC3)c2=O)c2ccccc21", "AC50": "15.8 µM [rising, partial curve]"}, {"smiles": "CC(C)NC[C@H](O)c1ccc(O)c(O)c1", "AC50": "25.1 µM [falling, partial curve]"}, {"smiles": "CCn1c(Cc2ccccc2)nnc1SCC(=O)Nc1ccc(S(N)(=O)=O)cc1", "AC50": "0.631 µM [rising, single point]"}, {"smiles": "O=C(NC1CCCCC1)C(c1ccccc1)N(Cc1ccco1)C(=O)Cn1cnc2ccccc21", "note": "(configuration not stated)", "AC50": "5.01 µM [rising, single point]"}, {"smiles": "COc1ccc(CNc2cc(-c3ccccc3Cl)ncn2)c(OC)c1", "AC50": "5.01 µM [rising, partial curve]"}, {"smiles": "O=C(COc1ncnc2ccccc12)NC1CCS(=O)(=O)C1", "note": "(configuration not stated)", "AC50": "0.631 µM [falling, single point]"}, {"smiles": "COCCCNC(=O)C1CCN(S(=O)(=O)c2c(C)noc2/C=C\\c2ccc(OC)cc2)CC1", "AC50": "10 µM [rising, partial curve]"}, {"smiles": "C=CCn1cnc2c(NCc3ccccc3)ncnc21", "AC50": "25.1 µM [rising, single point]"}, {"smiles": "COc1cc(C2N(c3ccccc3)CCN2c2ccccc2)ccc1OC(C)=O", "AC50": "6.31 µM [falling, partial curve]"}, {"smiles": "COc1ccc(NC(=O)Cc2nn(C)c(=O)c3ccccc23)c2ncccc12", "AC50": "1 µM [rising, partial curve]"}, {"smiles": "C[C@@H](C(=O)Nc1ccc2ccccc2c1)[C@@H]1C[C@@]1(C)[C@@H](NC(=O)c1cnccn1)c1ccccc1", "AC50": "5.01 µM [falling, full curve]"}, {"smiles": "CCN(CC)c1ccc(-c2c(C#N)c(N)nc(OC)c2C#N)cc1", "AC50": "12.6 µM [rising, partial curve]"}, {"smiles": "FC(F)(F)c1nnc2sc(-c3ccncc3)nn12", "AC50": "25.1 µM [rising, single point]"}, {"smiles": "C=C1C(=O)C=C2CN(C(=O)c3ccccc3)[C@@](Cc3ccc(F)cc3)(C(=O)OC)[C@@H]12", "AC50": "0.501 µM [falling, full curve, poor fit]"}, {"smiles": "COc1ccc(NC(=O)C2CC(c3cc(OC)c(OC)c(OC)c3)=NO2)cc1OC", "note": "(configuration not stated)", "AC50": "25.1 µM [rising, partial curve]"}, {"smiles": "CN1CC=C2C(C#N)=C(N)C(C#N)(C#N)C(c3cccc(Cl)c3Cl)C2C1", "note": "(configuration not stated)", "AC50": "12.6 µM [rising, partial curve]"}, {"smiles": "CCOC(=O)c1csc(NC(=O)c2cc(OC)c(OC)c(OC)c2)n1", "AC50": "15.8 µM [rising, partial curve]"}, {"smiles": "O=C(CCn1c(=O)c2ccccc2n(CC(=O)NCCC2=CCCCC2)c1=O)NCc1ccco1", "AC50": "25.1 µM [rising, single point]"}, {"smiles": "CCOCCCNC(=O)Cc1ccc(OC)c(OC)c1", "AC50": "25.1 µM [rising, single point]"}, {"smiles": "CCOC(=O)c1c(NC(=O)CSc2nnnn2C)sc(C)c1-c1ccc(C)cc1", "AC50": "3.98 µM [rising, full curve]"}, {"smiles": "Cc1nnsc1NC(=O)OCC(C)C", "AC50": "12.6 µM [falling, partial curve]"}, {"smiles": "CCc1ccccc1N1CSC2=C(C#N)C(c3cc(OC)c(OC)cc3OC)CC(=O)N2C1", "note": "(configuration not stated)", "AC50": "10 µM [rising, single point]"}, {"smiles": "N#Cc1cc2c(nc1SCc1cccnc1)CCC2", "AC50": "12.6 µM [rising, partial curve]"}, {"smiles": "COc1cccc2oc(-c3ccc(O)cc3)cc(=O)c12", "AC50": "10 µM [rising, full curve, poor fit]"}, {"smiles": "Cc1cc(-c2ccccc2)c2nncn2n1", "AC50": "0.126 µM [rising, full curve]"}, {"smiles": "CCc1cccc2c(C#N)cn(CCOc3ccccc3OC)c12", "AC50": "0.398 µM [falling, single point]"}, {"smiles": "CC(C)(C)c1cc(C(F)(F)F)nc(SCCCNC(=O)c2ccco2)n1", "AC50": "10 µM [rising, partial curve]"}, {"smiles": "O=c1c(CCc2ccccc2)nc2cncnc2n1-c1ccccc1", "AC50": "12.6 µM [rising, partial curve]"}, {"smiles": "CCCCOc1ccc(S(=O)(=O)n2c(C)nc3ccccc32)cc1", "AC50": "0.794 µM [rising, partial curve]"}, {"smiles": "CN(C)c1ncc2nc(-c3cc(F)cc(F)c3)c(=O)n(C)c2n1", "AC50": "6.31 µM [rising, partial curve]"}, {"smiles": "Cc1ccc2nc3c(cc(C(=O)NCC4CCCO4)c(=N)n3CCCOC(C)C)c(=O)n2c1", "note": "(configuration not stated)", "AC50": "10 µM [rising, partial curve]"}, {"smiles": "COc1ccc(-n2c(=O)c(CCc3ccccc3)nc3cnc(N4CCN(C)CC4)nc32)cc1", "AC50": "12.6 µM [rising, partial curve]"}, {"smiles": "O=C1CC(c2ccc(F)cc2)Sc2ccccc2N1", "note": "(configuration not stated)", "AC50": "12.6 µM [falling, single point]"}, {"smiles": "CN(C)CCCN1c2ccc3ccccc3c2Sc2cccc(Cl)c21", "AC50": "5.01 µM [rising, single point]"}, {"smiles": "COc1ccc(S(=O)(=O)C(C#N)c2nc3ccccc3nc2N2CCCC(C)C2)cc1", "note": "(configuration not stated)", "AC50": "12.6 µM [rising, partial curve]"}, {"smiles": "COc1cccc(-n2c(SC3CCOC3=O)nc3ccccc3c2=O)c1", "note": "(configuration not stated)", "AC50": "6.31 µM [rising, partial curve]"}, {"smiles": "CCCCC(=O)N1CC2(C)CN(C(=O)CCCC)CC(C)(C1)C2=O", "AC50": "0.316 µM [falling, partial curve]"}, {"smiles": "COc1ccc(-c2nc(C#N)c(N3CCCCCC3)o2)cc1OC", "AC50": "1.58 µM [rising, full curve]"}, {"smiles": "COc1cccc(Cn2c(=O)c(-c3ccccc3)nc3cnc(N4CCN(C)CC4)nc32)c1", "AC50": "2.51 µM [rising, full curve]"}, {"smiles": "CCOc1ccc(C(=O)Nc2cc(C)c3c(=O)oc4ccccc4c3n2)cc1", "AC50": "10 µM [rising, partial curve]"}, {"smiles": "N#C/C(=C\\Nc1ccc2c(c1)OCCO2)c1nc2ccccc2[nH]1", "AC50": "25.1 µM [falling, single point]"}, {"smiles": "CN(C(=O)CSc1nc(-c2ccc(F)cc2)cs1)C1CCS(=O)(=O)C1", "note": "(configuration not stated)", "AC50": "12.6 µM [falling, single point]"}, {"smiles": "O=C(Cn1cnc2c(cnn2-c2ccccc2)c1=O)NCc1ccccc1", "AC50": "20 µM [falling, single point]"}, {"smiles": "COc1ccc(-n2nnnc2-c2cccc(OC)c2)cc1", "AC50": "15.8 µM [rising, single point]"}, {"smiles": "CCOC(=O)CSc1nnc(CNC(=O)c2cccs2)n1-c1ccccc1", "AC50": "25.1 µM [rising, single point]"}, {"smiles": "O=c1cnc2cnc(Oc3cccc(Cl)c3)nc2n1C1CC1", "AC50": "15.8 µM [rising, single point]"}, {"smiles": "O=C(Nc1ccc2nc(-c3cccs3)[nH]c2c1)c1ccco1", "AC50": "5.01 µM [rising, partial curve]"}, {"smiles": "CCNc1ncc2nc(-c3cn(C)c4ccccc34)c(=O)n(C[C@H]3CCCO3)c2n1", "AC50": "15.8 µM [rising, partial curve]"}, {"smiles": "Cn1c(=O)cc(OCCCC(=O)Nc2ccc3c(c2)OCCO3)c2ccccc21", "AC50": "12.6 µM [rising, partial curve]"}, {"smiles": "N=C1C(c2nc3ccccc3c(=O)[nH]2)=C(O)CN1CCc1ccccc1", "AC50": "3.98 µM [rising, partial curve]"}, {"smiles": "CCc1ccccc1N1CCN(S(=O)(=O)c2ccc(F)c(C)c2)CC1", "AC50": "0.00398 µM [falling, full curve, poor fit]"}, {"smiles": "CCS(=O)(=O)c1ccc(O)c(NC(=O)c2cc(OC)c(OC)c(OC)c2)c1", "AC50": "10 µM [rising, partial curve]"}, {"smiles": "COC(=O)c1c(NC(=O)Cc2cccs2)sc2c1CCCC2", "AC50": "12.6 µM [rising, partial curve]"}, {"smiles": "COc1cccc(-n2ccnc2SCC(=O)Nc2cc(OC)ccc2OC)c1", "AC50": "10 µM [rising, partial curve]"}, {"smiles": "CCCc1cc(=O)[nH]c(SCC(=O)Nc2cc3c(cc2C(C)=O)OCO3)n1", "AC50": "15.8 µM [rising, partial curve]"}, {"smiles": "COc1cccc(-n2nnc3c(=O)n(CC(=O)OCc4ccccc4)cnc32)c1", "AC50": "5.01 µM [falling, single point]"}, {"smiles": "N#Cc1ccccc1-c1ccc2ncnc(N3CCNCC3)c2c1", "AC50": "12.6 µM [rising, partial curve]"}, {"smiles": "CCn1c(COc2ccccc2C)nnc1SCC(=O)CC(=O)Nc1ccccc1", "AC50": "25.1 µM [falling, single point]"}, {"smiles": "Cc1ccnc(NS(=O)(=O)c2ccc(NC(=O)C3CCCNC3=O)cc2)n1", "note": "(configuration not stated)", "AC50": "10 µM [rising, partial curve]"}, {"smiles": "c1cncc(-c2nnc3n2N=C(c2cccs2)CS3)c1", "AC50": "12.6 µM [rising, single point]"}, {"smiles": "O=c1c2ccccc2cnn1-c1nc2ccccc2s1", "AC50": "0.00316 µM [falling, full curve, poor fit]"}, {"smiles": "O=C1OC2(c3cc(Br)c(O)c(Br)c3Oc3c2cc(Br)c(O)c3Br)c2c(Cl)c(Cl)c(Cl)c(Cl)c21", "AC50": "31.6 µM [falling, single point]"}, {"smiles": "CCn1c(/C(C#N)=C(\\O)CCc2ccccc2)nc2ccccc21", "AC50": "12.6 µM [falling, single point]"}, {"smiles": "CCOC(=O)c1[nH]c(COC(=O)CCCOc2ccccc2)c(C(=O)OCC)c1C", "AC50": "10 µM [rising, partial curve]"}, {"smiles": "Cc1csc(NC(=O)c2ccc(C)c(S(=O)(=O)N3CCCCC3)c2)n1", "AC50": "7.94 µM [rising, partial curve, poor fit]"}]}]}
